# Some entries share one result that the patent states for a list of compounds. For at least one compound, name, drawing or mass did not settle the structure.
# Test system: human T98G gliobastoma cells
# Assay: Cytotoxicity of CB 1954 on T98G glioblastoma cells with NQO2 co-substrates
# Conditions: 144 hr in presence of CB 1954
smiles,measurement,value
"NC(=O)C1=CN([C@@H]2O[C@H](CO)[C@@H](O)[C@H]2O)C=CC1 [NRH, dihydronicotinamide riboside]",increase of the cytotoxicity of CB 1954 by added co-substrate,at least 100 fold
